Inconclusive results and toxic doses are left out. How the source made its calls: active means survival T/C of 150% or more; inactive means T/C below 125% in these data.
Test system: BDF1 mice, P388 leukemia ip, median survival T/C
Assay: NCI In Vivo Anticancer Drug Screen. Data for tumor model P388 Leukemia (intraperitoneal) in B6D2F1 (BDF1) mice
Details: endpoint: median survival time, higher = longer survival
Procedure, shortened: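 Read-out is survival of treated animals expressed relative to the vehicle group, as a T/C ratio.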

Measured: T/C

COc1cc2c(c(OC)c1OC)-c1ccc(OC)c(=O)cc1[C@@H](N)CC2
inactive: dose: 0.25 mg/kg/injection, schedule: Q01DX010 (ip), vehicle: saline 109 % of control | dose: 0.5 mg/kg/injection, schedule: Q01DX010 (ip), vehicle: saline 113 % of control | dose: 0.6 mg/kg/injection, schedule: Q01DX009 (ip), vehicle: water 106 % of control | dose: 0.63 mg/kg/injection, schedule: Q01DX009 (ip), vehicle: Klucel (hydroxypropylcellulose) (HPC) 105 % of control | dose: 1.0 mg/kg/injection, schedule: Q01DX010 (ip), vehicle: saline 113 % of control | dose: 1.0 mg/kg/injection, schedule: Q01DX010 (ip), vehicle: water 115 % of control | dose: 1.25 mg/kg/injection, schedule: Q01DX009 (ip), vehicle: Klucel (hydroxypropylcellulose) (HPC) 109 % of control | dose: 2.0 mg/kg/injection, schedule: Q01DX010 (ip), vehicle: saline 122 % of control | dose: 2.5 mg/kg/injection, schedule: Q01DX009 (ip), vehicle: Klucel (hydroxypropylcellulose) (HPC) 119 % of control | dose: 2.5 mg/kg/injection, schedule: Q01DX009 (ip), vehicle: water 103 % of control | dose: 5.0 mg/kg/injection, schedule: Q01DX009 (ip), vehicle: Klucel (hydroxypropylcellulose) (HPC) 122 % of control

Reference: PubChem BioAssay AID328 (DTP/NCI, 2004)
